The test system of the data set is ventricular fibrillation. Briefly: Defibrillation threshold (3-reversal up/down protocol) after electrically induced ventricular fibrillation in anesthetized pigs. In kind it is in vivo. To be noted: control, drug, washout, vehicle groups. From the text: Six healthy pigs (30-35 kg) of either sex were anesthetized, monitored, and maintained under physiologic conditions. See, Chattipakorn et al. (2000). Two catheter-mounted platinum coated titanium coil electrodes were used as defibrillating electrodes. A 34-mm catheter was inserted into the right ventricular (RV) apex and served as the cathode for the first phase of the biphasic shock. […] The position of the catheters was verified with fluoroscopy. The blood pressure and heart rate were monitored continuously throughout the entire study.
Ventricular fibrillation was induced by 60-Hz alternating current delivered via an electrode at the tip of the RV catheter. […] Delivered voltage and current were recorded on a waveform analyzer and total delivered energy was calculated. […]
The defibrillation threshold was determined 4 times during 4 different conditions in this study. The defibrillation threshold in each group was determined using a 3-reversal up/down protocol. See Chattipakorn et al. The first defibrillation threshold was determined at the beginning of the study. […] The second defibrillation threshold (drug-DFT) was determined 15 minutes after the application of Flunarizine. After the drug-DFT was obtained, the administration of Flunarizine was terminated while the blood pressure and heart rate were monitored. […]

`Fc1ccc(C(c2ccc(F)cc2)N2CCN(C/C=C/c3ccccc3)CC2)cc1` [Flunarizine]: the “change in current among the four defibrillation threshold groups” value is listed as “no significant changes” and the “change in impedance among the four defibrillation threshold groups” value is “no significant changes”.

These data come from patent US20030153951A1, “Methods and devices for treating arrhythmias using defibrillation shocks” (priority 2002, published 2003).
